# Library screen at single concentrations

By UniProt entry, the sequences of proteins in these tests, tags left out.
UniProt P9WFT3, whole entry: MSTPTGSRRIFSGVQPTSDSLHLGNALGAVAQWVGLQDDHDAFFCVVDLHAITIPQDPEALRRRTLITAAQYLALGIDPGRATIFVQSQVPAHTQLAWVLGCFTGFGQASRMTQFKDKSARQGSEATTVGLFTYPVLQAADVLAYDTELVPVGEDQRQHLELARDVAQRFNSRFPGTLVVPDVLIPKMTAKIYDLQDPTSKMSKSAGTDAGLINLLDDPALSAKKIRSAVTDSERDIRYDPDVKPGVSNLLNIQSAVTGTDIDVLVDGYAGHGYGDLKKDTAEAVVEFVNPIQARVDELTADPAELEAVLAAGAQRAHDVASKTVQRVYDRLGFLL

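Enzyme assay of tryptophanyl-tRNA synthetase; the read-out is not stated. Target: Tryptophan-tRNA ligase, Mycobacterium tuberculosis (UniProt P9WFT3). Concentration: 10 µM. Direction is not recorded; retested compounds ran higher, which suggests that high means inhibition. About 65,000 compounds were tested under these conditions; 0.098% (about 64) showed 50% or more at least once.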

The filed quantity is “Percent Effect” (%).
How 0% and 100% were set is not recorded. Most values in the screen are low, and negative values occur.
This is an unselected part of the compounds tested.

| # | structure | percent effect |
|---|---|---|
| 1 | `CCN(Cc1c(C)nn(CC)c1C)S(=O)(=O)c1cnn(C)c1C` | -0.1273% |
| 2 | `CCn1ccnc1CN1CCC(N(Cc2ncc(C)o2)C(C)=O)C1` (centres unmarked) | -0.06535% |
| 3 | `CC(C(=O)NCc1cccc(N2CC=CC2)c1)n1cccn1` (centres unmarked) | -5.189% |
| 4 | `CC1CCC(NC(=O)c2nn(C)cc2I)CC1` (centres unmarked) | 1.508% |
| 5 | `Cc1nn(C(C)C)c(C)c1S(=O)(=O)Nc1ccc(C(=O)O)cc1` | -6.295% |
| 6 | `Cc1ccsc1C(=O)NCc1ccnc(C2CCCOC2)n1` (centres unmarked) | 7.115% |
| 7 | `CC(=O)Nc1ccc(CN(C)Cc2snnc2C)cc1` | 2.643% |
| 8 | `Cc1cc(C)n(CC2CCCN2C(=O)c2cccc(C#N)c2)n1` (centres unmarked) | -0.6773% |
| 9 | `NC(=O)NCC1CCCCN1Cc1nc(-c2ccco2)no1` (centres unmarked) | -2.568% |
| 10 | `Cc1cc(C2CCCN(CCNS(=O)(=O)c3ccccc3)C2)n[nH]1` (centres unmarked) | 18.26% |
| 11 | `CC(NC(=O)NCCCN(C)S(C)(=O)=O)c1ccncc1` (centres unmarked) | -0.09747% |
| 12 | `Cc1cnn(CC2CCCN2C(=O)c2ccc3nnc(C)n3c2)c1` (centres unmarked) | -5.122% |
| 13 | `CN(C)S(=O)(=O)N1CCOCC1CC(=O)NCCOc1ccccc1` (centres unmarked) | 1.464% |
| 14 | `Cc1ccc(CN2CC[C@H]3OCC[C@@H](C(=O)NCC4CC4)[C@@H]3C2)s1` | -0.6509% |
| 15 | `Cc1nc(C2CCCN2Cc2cc(Cl)c3c(c2)OCO3)no1` (centres unmarked) | -6.155% |
| 16 | `CC(=O)N1CCC(c2ncc3c(n2)CCN(C(=O)c2ccccc2)C3)C1` (centres unmarked) | -0.6377% |
| 17 | `O=c1[nH]c(NC2CCCC2)nc2nccc(-c3ccco3)c12` | -0.1575% |
| 18 | `CN1[C@@H](C(=O)NCC2CC2)C[C@@H]2CN(Cc3ccsc3)C[C@@H]21` | -0.8292% |
| 19 | `O=C1c2cnc(N3CCCCC3)nc2CN1c1ccc2c(c1)OCO2` | 2.581% |
| 20 | `O=C(c1ccc(F)cc1)N1CCN2C[C@H](OCc3cccnc3)C[C@H]2C1` | -0.4691% |
| 21 | `Cc1ccc(C)c(NCc2nc3n(n2)CCCCC3)c1` | -3.525% |
| 22 | `Cc1cccnc1CC(C)N(C)C(=O)c1ccoc1C` (centres unmarked) | 7.611% |
| 23 | `CN(CC1CC1)c1ccc2ccc(C(=O)NC3CCCCC3)cn12` | -1.658% |
| 24 | `CCCc1nc(NCCOC)c2c(n1)c(C)nn2CC` | 3.886% |
| 25 | `CCOc1cc2c(cc1C(=O)O)CCC2` | 2.603% |
| 26 | `Cc1cc(CN2CCN(C(=O)c3sccc3C3CC3)CC2)no1` | -4.765% |
| 27 | `Cn1nccc1C(=O)N1CCC(c2nnsc2S(C)(=O)=O)CC1` | -6.358% |
| 28 | `Cc1nc(C(=O)N(C)[C@@H]2CCC[C@@H](Oc3ccccc3)[C@@H]2O)co1` | 0.7536% |
| 29 | `CC(C)C1CN(c2ncccn2)CCC(=O)N1CC1CC1` (centres unmarked) | 1.957% |
| 30 | `Cc1ccc(C(=O)Nc2cc(F)ccc2OCC2CCCO2)cn1` (centres unmarked) | 5.126% |
| 31 | `O=C(CCCc1ccccc1)Nc1cnc(N2CCOCC2)nc1` | -0.2366% |
| 32 | `COc1ccc(NC(=O)C2CC(=O)N(C)C2)cn1` (centres unmarked) | -5.677% |
| 33 | `Cc1cc(N2CCC(n3cc(CN4CCNCC4)nn3)CC2)ccn1` | 7.471% |
| 34 | `CN(C)C(=O)CN1CCCN(CC2CCOc3ccccc3C2)CC1` (centres unmarked) | -1.847% |
| 35 | `COc1ccccc1CC(=O)NCc1ccnc(NC2CC2)c1` | 0.5198% |
| 36 | `CCc1nnsc1C(=O)NCCCC(CC)(CC)C1OCCO1` | -6.226% |
| 37 | `O=C(O)[C@]12CCCN(Cc3ccoc3)C[C@H]1CN(c1ncccn1)C2` | -4.182% |
| 38 | `CNc1cc(C2CN(Cc3scnc3C)CCO2)nc(C)n1` (centres unmarked) | -0.9412% |
| 39 | `COCc1ncc(CN2CCC3(CCC(=O)N(CC(C)O)C3)CC2)cn1` (centres unmarked) | -1.162% |
| 40 | `N#Cc1ccc(SCCOCCO)c(Cl)c1` | -0.1037% |
| 41 | `CS(=O)(=O)c1ccc(OCCNCc2ccc(F)cc2F)cc1` | -1.727% |
| 42 | `N#Cc1ccc(SCCC(=O)NC(N)=O)cc1` | -1.234% |
| 43 | `CCOCCNCc1cc(O)c2cc(C)ccc2n1` | 1.724% |
| 44 | `CC(C)Oc1cccc(CNC(=O)NC(C)(C(=O)O)c2ccco2)c1` (centres unmarked) | 0.8772% |
| 45 | `CCn1cnnc1C1CCCN(C(=O)COc2ccc(Cl)cc2)C1` (centres unmarked) | 2.308% |
| 46 | `CC(C)(C)NC(=O)CCn1ncc2c(Cl)cccc21` | 3.886% |
| 47 | `CCCc1ccc(CN2C[C@H]3C(=O)N(CC4CC4)C[C@@]3(C(=O)O)C2)o1` | -0.4036% |
| 48 | `CCOCCN1CCN(Cc2nnc(C3CC3)o2)CC1C` (centres unmarked) | 5.556% |
| 49 | `COCC(=O)N1CCC2(CC1)COC(COCc1ccccn1)C2` (centres unmarked) | -4.843% |
| 50 | `O=C1N(CCCc2ccccc2)CCCC1(O)CNCc1ccccc1` (centres unmarked) | -4.191% |
| 51 | `CN(C)C(=O)N1C[C@H]2CC[C@@H]1CN(C1Cc3ccccc3C1)C2` | 5.189% |
| 52 | `O=C(NC1CCc2nccn2C1)c1ccc(OCC2CC2)nc1` (centres unmarked) | -3.939% |
| 53 | `Cc1nn(C)c(N(C)C)c1CNCc1ccccc1CN(C)C` | 0.09747% |
| 54 | `CCOC(CC)C(=O)NCCC(=O)N1CCN(c2ccccn2)CC1` (centres unmarked) | -2.225% |

Once more, the final 3:

structure,percent effect
O=C(NC1CCc2nccn2C1)c1ccc(OCC2CC2)nc1 (centres unmarked),-3.939%
Cc1nn(C)c(N(C)C)c1CNCc1ccccc1CN(C)C,0.09747%
CCOC(CC)C(=O)NCCC(=O)N1CCN(c2ccccn2)CC1 (centres unmarked),-2.225%

Data taken from ChEMBL document CHEMBL3988442, “University of Dundee, Small-Polar-MMV Screening Library” (2021).